{
  "sequences": {"note": "The chains behind the UniProt entries cited, without tags or fusion partners. Residues count along the entry.", "UniProt A6NMZ7, residues 20-2263": "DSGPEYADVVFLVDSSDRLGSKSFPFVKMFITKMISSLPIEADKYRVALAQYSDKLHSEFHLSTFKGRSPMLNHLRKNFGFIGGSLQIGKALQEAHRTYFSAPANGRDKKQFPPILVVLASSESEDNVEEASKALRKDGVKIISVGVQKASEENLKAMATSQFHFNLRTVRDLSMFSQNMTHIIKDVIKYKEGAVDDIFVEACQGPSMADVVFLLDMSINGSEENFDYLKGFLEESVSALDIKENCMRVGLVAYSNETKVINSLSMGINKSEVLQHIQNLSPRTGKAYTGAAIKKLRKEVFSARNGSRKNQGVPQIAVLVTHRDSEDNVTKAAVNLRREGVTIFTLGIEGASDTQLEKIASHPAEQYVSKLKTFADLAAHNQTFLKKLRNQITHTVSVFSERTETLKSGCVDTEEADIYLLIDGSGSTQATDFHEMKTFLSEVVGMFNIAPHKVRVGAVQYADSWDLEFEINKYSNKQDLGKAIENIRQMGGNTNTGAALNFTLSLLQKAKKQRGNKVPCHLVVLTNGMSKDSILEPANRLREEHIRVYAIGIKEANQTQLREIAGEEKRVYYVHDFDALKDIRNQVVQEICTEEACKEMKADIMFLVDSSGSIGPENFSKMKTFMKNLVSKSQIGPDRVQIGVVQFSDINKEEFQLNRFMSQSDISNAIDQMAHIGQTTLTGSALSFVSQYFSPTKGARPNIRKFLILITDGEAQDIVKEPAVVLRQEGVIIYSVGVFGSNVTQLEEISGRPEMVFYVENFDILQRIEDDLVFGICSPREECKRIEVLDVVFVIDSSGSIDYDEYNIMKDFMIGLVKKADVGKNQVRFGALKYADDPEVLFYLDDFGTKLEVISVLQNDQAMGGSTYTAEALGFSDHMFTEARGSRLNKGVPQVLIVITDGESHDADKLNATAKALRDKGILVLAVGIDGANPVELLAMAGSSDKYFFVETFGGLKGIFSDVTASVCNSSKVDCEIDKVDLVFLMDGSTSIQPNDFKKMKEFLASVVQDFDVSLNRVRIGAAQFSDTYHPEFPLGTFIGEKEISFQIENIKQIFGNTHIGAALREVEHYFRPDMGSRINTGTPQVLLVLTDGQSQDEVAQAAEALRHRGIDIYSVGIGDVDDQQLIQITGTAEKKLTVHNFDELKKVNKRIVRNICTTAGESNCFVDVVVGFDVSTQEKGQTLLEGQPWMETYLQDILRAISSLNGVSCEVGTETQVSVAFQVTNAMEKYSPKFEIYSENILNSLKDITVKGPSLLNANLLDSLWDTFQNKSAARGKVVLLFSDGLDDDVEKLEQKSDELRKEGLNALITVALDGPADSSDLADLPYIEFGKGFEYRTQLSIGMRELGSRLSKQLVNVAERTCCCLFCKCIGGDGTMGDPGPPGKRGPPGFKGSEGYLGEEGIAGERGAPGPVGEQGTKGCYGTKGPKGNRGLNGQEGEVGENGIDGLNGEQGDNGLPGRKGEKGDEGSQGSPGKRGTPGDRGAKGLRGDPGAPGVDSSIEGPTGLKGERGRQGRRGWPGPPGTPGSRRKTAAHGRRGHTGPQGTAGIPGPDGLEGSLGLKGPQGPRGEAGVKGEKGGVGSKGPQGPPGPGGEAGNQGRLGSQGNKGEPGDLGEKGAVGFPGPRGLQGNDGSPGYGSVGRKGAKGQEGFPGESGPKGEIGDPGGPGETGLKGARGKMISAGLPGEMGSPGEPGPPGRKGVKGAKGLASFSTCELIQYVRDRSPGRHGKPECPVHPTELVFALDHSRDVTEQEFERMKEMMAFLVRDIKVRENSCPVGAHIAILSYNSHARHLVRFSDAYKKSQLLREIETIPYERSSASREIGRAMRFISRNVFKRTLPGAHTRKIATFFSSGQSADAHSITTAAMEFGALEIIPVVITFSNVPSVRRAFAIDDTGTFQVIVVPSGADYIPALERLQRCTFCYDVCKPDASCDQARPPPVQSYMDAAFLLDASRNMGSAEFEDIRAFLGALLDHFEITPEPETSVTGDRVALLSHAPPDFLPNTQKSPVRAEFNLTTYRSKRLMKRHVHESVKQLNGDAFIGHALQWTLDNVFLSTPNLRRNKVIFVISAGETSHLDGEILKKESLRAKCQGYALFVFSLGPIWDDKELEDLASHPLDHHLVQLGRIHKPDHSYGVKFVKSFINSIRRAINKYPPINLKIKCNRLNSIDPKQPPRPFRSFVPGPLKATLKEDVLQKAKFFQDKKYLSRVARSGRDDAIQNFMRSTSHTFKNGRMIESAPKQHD"},
  "source": "paper PMC6834431",
  "biological_target": "T1, prolyl-4-hydroxylase alpha polypeptide III (P4HA3) (UniProt Q7Z4N8)",
  "T1 sequence": "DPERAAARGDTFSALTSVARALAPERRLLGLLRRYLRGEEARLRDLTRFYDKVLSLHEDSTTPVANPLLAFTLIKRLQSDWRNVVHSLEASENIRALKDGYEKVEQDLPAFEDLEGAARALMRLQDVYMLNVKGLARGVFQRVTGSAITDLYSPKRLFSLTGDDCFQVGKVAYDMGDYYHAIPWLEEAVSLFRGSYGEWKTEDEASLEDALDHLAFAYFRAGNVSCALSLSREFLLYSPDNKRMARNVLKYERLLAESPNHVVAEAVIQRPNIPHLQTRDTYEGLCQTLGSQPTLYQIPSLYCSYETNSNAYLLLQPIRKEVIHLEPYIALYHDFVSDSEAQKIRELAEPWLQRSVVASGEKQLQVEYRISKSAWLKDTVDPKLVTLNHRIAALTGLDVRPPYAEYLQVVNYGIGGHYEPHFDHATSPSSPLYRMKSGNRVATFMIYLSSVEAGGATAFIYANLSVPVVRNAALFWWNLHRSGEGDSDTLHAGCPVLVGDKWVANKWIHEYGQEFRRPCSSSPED",
  "assay": "co-IP; co-immunoprecipitation (Figure 5C, 5D); cells, precipitating antibody and conditions not stated",
  "note": "No constants are given. Whether binding was seen depends on the method and setting. In cells and extracts the contact can be indirect. Some results given as binding are weak or reduced against the parent protein; the word gives no strength.",
  "data": [
    {"substance": "collagen type VI alpha 6 (COL6A6) (from UniProt A6NMZ7 20-2263)", "values": [
      {"measurement": "binding", "result": "binds"}
    ]}
  ]
}
